For 18 molecules, binding results are on record in article PMC5988664.

By UniProt entry, the sequences of proteins in these tests, tags left out. Residues count along the entry.
UniProt P16045: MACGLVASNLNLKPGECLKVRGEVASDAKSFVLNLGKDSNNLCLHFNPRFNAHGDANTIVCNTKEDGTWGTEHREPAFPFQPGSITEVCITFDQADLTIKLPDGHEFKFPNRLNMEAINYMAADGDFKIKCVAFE
UniProt P13595, residues 20-1115: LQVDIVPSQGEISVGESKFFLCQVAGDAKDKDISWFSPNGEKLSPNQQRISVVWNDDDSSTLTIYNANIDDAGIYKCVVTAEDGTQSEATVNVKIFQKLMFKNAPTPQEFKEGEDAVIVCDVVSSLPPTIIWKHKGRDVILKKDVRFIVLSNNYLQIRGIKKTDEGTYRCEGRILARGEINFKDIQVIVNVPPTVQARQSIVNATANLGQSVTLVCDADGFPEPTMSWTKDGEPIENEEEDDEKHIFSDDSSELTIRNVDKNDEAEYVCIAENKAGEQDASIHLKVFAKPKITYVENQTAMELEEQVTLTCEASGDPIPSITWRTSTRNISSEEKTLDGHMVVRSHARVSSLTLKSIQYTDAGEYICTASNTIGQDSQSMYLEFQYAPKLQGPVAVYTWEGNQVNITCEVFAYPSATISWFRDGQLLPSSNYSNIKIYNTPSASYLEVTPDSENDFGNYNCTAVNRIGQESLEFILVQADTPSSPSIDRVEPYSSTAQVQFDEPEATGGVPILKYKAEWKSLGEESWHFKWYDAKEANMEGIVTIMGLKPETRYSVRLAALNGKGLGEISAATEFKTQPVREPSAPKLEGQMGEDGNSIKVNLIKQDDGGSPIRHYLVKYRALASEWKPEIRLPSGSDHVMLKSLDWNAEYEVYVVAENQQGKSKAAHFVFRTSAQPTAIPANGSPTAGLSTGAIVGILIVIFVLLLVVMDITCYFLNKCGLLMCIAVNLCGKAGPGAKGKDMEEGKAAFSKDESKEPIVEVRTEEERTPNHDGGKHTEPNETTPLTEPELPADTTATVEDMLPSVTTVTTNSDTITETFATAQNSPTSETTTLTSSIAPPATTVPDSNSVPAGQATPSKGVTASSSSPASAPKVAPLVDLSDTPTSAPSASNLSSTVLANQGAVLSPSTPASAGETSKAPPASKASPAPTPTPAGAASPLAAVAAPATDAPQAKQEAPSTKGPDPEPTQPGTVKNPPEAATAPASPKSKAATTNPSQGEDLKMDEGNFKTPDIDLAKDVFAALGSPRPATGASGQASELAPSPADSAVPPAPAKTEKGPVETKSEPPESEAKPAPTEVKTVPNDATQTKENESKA
UniProt Q9R0Q3, residues 21-201: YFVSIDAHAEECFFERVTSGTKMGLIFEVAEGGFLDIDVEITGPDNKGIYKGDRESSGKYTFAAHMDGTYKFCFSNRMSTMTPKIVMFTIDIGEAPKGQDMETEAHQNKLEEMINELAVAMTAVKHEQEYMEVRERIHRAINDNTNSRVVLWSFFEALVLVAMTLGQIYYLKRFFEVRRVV
UniProt Q9Z127: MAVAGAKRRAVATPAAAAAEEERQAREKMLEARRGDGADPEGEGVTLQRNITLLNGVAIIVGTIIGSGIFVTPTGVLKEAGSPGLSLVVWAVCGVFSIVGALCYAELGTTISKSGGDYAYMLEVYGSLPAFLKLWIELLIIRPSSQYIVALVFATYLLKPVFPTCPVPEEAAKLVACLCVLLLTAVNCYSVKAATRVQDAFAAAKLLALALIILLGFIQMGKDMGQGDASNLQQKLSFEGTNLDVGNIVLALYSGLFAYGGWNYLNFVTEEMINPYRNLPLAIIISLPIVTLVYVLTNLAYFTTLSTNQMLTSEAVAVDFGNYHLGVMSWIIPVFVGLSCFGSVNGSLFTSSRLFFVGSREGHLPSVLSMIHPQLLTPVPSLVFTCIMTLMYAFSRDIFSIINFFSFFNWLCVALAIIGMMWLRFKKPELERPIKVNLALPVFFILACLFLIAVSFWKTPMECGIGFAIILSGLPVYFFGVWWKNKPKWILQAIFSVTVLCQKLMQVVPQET
UniProt P10852: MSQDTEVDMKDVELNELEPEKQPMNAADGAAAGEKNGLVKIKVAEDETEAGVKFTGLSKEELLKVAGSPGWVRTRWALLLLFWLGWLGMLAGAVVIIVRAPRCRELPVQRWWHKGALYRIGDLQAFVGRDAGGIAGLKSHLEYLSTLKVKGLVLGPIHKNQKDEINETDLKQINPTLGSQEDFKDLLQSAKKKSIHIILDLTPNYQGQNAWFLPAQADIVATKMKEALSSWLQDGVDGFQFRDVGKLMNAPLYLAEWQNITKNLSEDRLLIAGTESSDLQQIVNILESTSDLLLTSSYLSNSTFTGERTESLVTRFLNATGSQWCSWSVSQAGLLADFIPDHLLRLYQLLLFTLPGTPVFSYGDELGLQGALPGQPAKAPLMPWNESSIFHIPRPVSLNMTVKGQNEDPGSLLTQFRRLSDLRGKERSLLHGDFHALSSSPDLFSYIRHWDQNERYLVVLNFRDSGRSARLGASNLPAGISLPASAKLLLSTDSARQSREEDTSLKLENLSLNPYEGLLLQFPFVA
UniProt P35441, residues 19-1170: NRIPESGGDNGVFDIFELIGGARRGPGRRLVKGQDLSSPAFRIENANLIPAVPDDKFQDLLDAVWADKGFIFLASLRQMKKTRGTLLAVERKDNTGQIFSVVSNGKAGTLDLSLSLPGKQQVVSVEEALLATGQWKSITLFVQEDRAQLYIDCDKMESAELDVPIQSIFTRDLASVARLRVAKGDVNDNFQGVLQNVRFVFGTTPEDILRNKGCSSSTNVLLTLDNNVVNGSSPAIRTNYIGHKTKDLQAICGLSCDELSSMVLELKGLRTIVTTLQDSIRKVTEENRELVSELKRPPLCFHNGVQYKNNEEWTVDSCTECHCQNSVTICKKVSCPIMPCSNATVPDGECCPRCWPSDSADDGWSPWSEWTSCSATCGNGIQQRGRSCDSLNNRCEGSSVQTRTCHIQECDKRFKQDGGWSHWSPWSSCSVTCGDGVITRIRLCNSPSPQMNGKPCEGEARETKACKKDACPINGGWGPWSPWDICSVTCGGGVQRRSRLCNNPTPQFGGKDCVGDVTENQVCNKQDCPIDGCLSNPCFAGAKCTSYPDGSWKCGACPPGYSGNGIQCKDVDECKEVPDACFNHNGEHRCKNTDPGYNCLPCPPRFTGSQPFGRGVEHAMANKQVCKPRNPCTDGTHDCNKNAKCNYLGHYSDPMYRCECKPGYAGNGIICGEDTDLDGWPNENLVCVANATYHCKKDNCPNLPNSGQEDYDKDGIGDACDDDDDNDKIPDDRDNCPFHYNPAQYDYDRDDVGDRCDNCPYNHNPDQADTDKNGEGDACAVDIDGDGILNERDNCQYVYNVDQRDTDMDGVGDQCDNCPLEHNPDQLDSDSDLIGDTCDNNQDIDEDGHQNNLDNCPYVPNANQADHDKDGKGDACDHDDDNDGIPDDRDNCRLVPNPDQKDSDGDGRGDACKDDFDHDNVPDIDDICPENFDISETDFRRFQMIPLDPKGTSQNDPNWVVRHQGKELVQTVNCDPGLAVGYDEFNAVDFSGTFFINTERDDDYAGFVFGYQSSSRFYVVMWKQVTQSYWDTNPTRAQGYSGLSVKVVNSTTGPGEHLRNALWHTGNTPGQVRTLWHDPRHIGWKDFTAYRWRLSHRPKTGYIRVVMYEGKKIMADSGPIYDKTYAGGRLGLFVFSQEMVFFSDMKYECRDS
UniProt P14211, residues 18-416: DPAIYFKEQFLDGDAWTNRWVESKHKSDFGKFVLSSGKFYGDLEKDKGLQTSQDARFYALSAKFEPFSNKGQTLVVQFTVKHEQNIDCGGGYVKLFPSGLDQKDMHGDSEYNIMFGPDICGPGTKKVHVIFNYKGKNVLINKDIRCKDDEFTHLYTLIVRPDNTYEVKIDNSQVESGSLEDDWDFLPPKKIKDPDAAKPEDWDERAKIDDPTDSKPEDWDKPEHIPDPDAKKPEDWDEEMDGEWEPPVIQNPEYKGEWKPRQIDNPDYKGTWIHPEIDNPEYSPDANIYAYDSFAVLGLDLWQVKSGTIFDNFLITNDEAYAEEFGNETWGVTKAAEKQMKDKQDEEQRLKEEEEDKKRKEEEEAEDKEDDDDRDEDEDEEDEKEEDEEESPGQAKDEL
UniProt Q9D771: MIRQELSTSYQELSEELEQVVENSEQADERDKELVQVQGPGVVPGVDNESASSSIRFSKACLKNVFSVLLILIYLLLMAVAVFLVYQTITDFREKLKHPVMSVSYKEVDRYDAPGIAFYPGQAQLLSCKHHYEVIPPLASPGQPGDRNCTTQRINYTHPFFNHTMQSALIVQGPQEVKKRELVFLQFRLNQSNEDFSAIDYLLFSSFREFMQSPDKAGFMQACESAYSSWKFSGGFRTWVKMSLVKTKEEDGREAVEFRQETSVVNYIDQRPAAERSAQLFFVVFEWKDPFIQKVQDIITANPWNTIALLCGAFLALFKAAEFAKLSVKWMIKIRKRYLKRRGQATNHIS
UniProt Q69ZU6, residues 39-1645: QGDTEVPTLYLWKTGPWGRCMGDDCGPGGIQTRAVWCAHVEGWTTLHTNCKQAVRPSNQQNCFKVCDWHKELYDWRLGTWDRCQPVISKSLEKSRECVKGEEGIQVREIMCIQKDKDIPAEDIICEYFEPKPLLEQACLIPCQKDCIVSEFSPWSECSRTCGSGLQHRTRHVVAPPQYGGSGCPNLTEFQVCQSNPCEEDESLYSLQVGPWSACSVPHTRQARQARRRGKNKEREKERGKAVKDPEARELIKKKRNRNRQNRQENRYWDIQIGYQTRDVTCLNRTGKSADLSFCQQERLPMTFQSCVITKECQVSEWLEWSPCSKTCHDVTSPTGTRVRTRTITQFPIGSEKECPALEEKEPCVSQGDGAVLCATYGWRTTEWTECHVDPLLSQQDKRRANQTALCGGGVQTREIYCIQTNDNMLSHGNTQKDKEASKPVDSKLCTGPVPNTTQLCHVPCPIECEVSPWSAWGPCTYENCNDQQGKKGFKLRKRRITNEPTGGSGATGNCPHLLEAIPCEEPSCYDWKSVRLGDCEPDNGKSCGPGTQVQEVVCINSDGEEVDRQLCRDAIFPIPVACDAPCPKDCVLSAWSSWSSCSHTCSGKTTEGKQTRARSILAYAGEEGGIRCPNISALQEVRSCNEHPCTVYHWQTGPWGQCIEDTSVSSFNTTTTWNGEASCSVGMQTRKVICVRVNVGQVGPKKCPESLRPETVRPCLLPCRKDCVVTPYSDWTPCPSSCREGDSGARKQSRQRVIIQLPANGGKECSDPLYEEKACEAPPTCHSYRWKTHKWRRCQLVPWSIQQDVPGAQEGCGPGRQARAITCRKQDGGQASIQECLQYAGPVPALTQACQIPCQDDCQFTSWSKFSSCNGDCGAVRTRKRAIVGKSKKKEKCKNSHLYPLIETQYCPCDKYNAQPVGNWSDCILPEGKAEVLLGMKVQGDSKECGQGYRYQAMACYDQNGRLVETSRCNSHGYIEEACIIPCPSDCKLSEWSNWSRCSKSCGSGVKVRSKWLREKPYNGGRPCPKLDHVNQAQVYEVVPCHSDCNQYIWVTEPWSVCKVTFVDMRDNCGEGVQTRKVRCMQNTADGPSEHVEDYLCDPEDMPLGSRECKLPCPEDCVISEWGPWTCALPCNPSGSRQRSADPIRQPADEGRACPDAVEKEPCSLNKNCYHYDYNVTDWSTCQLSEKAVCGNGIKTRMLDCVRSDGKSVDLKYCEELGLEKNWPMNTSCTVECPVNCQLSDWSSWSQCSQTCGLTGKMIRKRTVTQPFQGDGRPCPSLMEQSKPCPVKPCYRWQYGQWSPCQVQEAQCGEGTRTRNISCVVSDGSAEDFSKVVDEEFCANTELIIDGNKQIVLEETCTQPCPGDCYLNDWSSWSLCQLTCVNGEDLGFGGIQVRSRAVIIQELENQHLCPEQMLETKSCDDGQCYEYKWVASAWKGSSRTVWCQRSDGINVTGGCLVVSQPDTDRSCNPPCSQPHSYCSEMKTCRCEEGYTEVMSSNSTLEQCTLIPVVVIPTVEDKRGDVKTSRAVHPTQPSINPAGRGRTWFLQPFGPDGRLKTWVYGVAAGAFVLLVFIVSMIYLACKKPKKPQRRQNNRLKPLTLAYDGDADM
UniProt Q07079, residues 20-271: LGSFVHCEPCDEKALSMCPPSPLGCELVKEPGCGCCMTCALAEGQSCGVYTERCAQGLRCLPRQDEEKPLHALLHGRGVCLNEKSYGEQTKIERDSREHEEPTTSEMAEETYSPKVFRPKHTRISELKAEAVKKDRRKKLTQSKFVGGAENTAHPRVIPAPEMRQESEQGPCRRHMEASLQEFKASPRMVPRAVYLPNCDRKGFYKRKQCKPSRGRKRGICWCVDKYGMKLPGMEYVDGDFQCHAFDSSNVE

B1: ZIP10 zinc transporter (Zip10) (protein, UniProt Q6P5F6 26-833)
chain: HEDHDHGPEELHRHHRGMTESESSKFSVQDAENEKKYYIEKLFDRYGENGRLSFFGLEKLLTNLGLGEIKVVEINHEDLGHDHVSHLDILAVQEGKHFHSHTHQHFHNHLNAENHTTTSVTSKRNHKCDPEKEAAELPIKADDKHLHDRNHRFHHRHRLHHHLDHNTTRHVHNDSVAHSEHGEPGHSPSPETNKTQEQSEVKSVKVRRKEKGKRKKENSEVNTPGFLPNHDHSEQYEHNRVHKLDRVHSPGHPHAHLPEHSGHELGHGHQELDPDNEGELRHTRKREAPHVRKSAIYSTPSHKDQSEDDRQHECLNVTQLLKHFGLGPNSPISPDLFTYLCPALLYQIDSRLCIEHFDKLLVEDLNKDKTLVPEDKTNIGASAWICGIISITVISLLSLLGVILVPIINQGCFKFLLTFLVALAVGTMSGDALLHLLPHSQGGHDHSHQHTHGHGHSHGHESKEFLEEYDAVLKGLVALGGIYLLFIIEHCIRMFKHYKQQRGKQKWFMKQSTEESTIGRKLSDHKLNSTPDADWLQLKPLAGTDDSVVSEDRLNETELTDLEAQQESPPKNYLGVEEEKIMDHSHSDGLHTIHEHEVHVTSHNHHDEDKAVLRKHSHQWHHRHAHHSHGPCHSGSDLKETGIANIAWMVIMGDGIHNFSDGLAIGAAFSAGLTGGISTSIAVFCHELPHELGDFAVLLKAGMTVKQAIVYNLLSAMMAYIGMLIGTAVGQYANNITLWIFAITAGMFLYVALVDMLPEMLHGDGDHEEHGFCPVGQFILQNLGLLFGFAIMLVIALYEDKIVFDIQF
B2: glypican-1 (Gpc1) (protein, UniProt Q9QZF2 24-529)
chain: DPASKSRSCSEVRQIYGAKGFSLSDVPQAEISGEHLRICPQGYTCCTSEMEENLANHSRMELESALHDSSRALQATLATQLHGIDDHFQRLLNDSERTLQEAFPGAFGDLYTQNTRAFRDLYAELRLYYRGANLHLEETLAEFWARLLERLFKQLHPQLLPDDYLDCLGKQAEALRPFGDAPRELRLRATRAFVAARSFVQGLGVASDVVRKVAQVPLAPECSRAIMKLVYCAHCRGVPGARPCPDYCRNVLKGCLANQADLDAEWRNLLDSMVLITDKFWGPSGAESVIGGVHVWLAEAINALQDNKDTLTAKVIQACGNPKVNPHGSGPEEKRRRGKLALQEKPSTGTLEKLVSEAKAQLRDIQDFWISLPGTLCSEKMAMSPASDDRCWNGISKGRYLPEVMGDGLANQINNPEVEVDITKPDMTIRQQIMQLKIMTNRLRGAYGGNDVDFQDASDDGSGSGSGGGCPDDTCGRRVSKKSSSSRTPLTHALPGLSEQEGQKTS
B3: transmembrane emp24 domain-containing protein 10 (Tmed10) (protein, UniProt Q9D1D4 32-219)
chain: ISFHLPVNSRKCLREEIHKDLLVTGAYEITDQSGGAGGLRTHLKITDSAGHILYAKEDATKGKFAFTTEDYDMFEVCFESKGTGRIPDQLVILDMKHGVEAKNYEEIAKVEKLKPLEVELRRLEDLSESIVNDFAYMKKREEEMRDTNESTNTRVLYFSIFSMFCLIGLATWQVFYLRRFFKAKKLIE
B4: Cd109 (protein, UniProt Q8R422 22-1419)
chain: APGSRFLVTAPGIIRPGANVTIGVDLLENSPPQVLVKAQVFKIASNKSRSILEAEGVFHRGHFKTLVLPALPLSSADKIYELHINGQSENEIVFSNRTRLTFESKSISVLIQTDKAFYKPKQEVKFRVLTLCSDLKPYRTSVDIFIKDPKSNVIQQWFSQKGDLGVVSKTFQLSSNPIFGDWSIQVQVNDQQYYQSFQVLEYVLPKFEVTVQTPLYCSLKSKQLNGSVIAKYTYGKPVKGSLSLTFLPLSFWGKKKNITKSFEINGFANFSFDNYEMKKVMNLKPLTDVSEGSYENVDPSFPGPAEIIATVTESLTGISRMASTNVFFKQHDYIIEIFDYTTVLKPSLNFTATVKVSRSDGNQLTPEEIENDLVTVVTQRKNNHPESQRDQEMDYIQTVNYTIPQNGIIKIEFPVMSISGELQLKAYFLDGTSSVTVHSMFTSPSKTYIQLKTRDEYIKVGSPFDLMVSGNRQFKDLSYMVISKGQLVAAGKQSSRTFSLTPEASWAPKACIIAYYIAEDGEIINDILKIPVQLVFENKVKLFWSKPTVKPSDKVSLRISATQSDSLVGIVAVDKSVTLMENSNSITMETMVHELELYNTEYYLGMFMNSFAVFQECGLWVLTDATLIRDSIDEVYDTEEYSERFAEENEANLVDFEDASSVNNVHVRKNFPETWIWLDAYMGSKIYEEFEVTVPDSITSWVASAFVISEDLGFGLTTVPAELQAFQPFFLFLNLPYSVIRGEEFALEVSIVNYLKDTIKVVILIEESDSFDILMTSNDTNGTIYRKTVQVPRDNGVTLVFPIKPTHLGEIPITVTAASPTASDAVTQTIVVKPEGIEKSYSKSVLLDLTDSNVESKQQSMRFSFPPDTVIGSERVQITAIGDILGSSINGLSSLIRMPYGCGEQNMIYFAPNIYILDYLTKQKQLTVNLKEKALSYMRQGYQRELLYQREDGSFSAFGDIDSSGSTWLSAFVLRCFLEADYYIDIDQDVLHRTYTWLNAHKKFNGEFWEPGRVIHSELQGGTKSPVTLTAYIVTSVLGYKKYQPNIDVQDSIKFLEFEFSRGISDNYTLAIISYALSTVGSPKAEEALNLLMQRSEKEGDTQFWLSSGPALSGSWQPRSVDIEIAAYALLAHTLHHVSEGIPVMRWLIQQRNSLGGFVSTQDTVVALKALSEFSALVHKENTDIQLTVTGPGIPRSIHFRIDSQNLFLLHQEELHALDPITVNVSAHGSGFAICQLNVDYNVKGSGSSKRRRSTENQEVFDLDVIVNNEDDISHLNLNVCTSHLGSERTGMVLMEVNLLSGFSASSDSIPLSETLKKVEYDNGKLNLYLDSVNESQFCVNIPTVRDYKVSNIRDGSVSVMDYYEPRRQAVRSYNTQVKLSSCYLSPDTNCKSHTDGA
B5: Cd47 (protein, UniProt Q61735 19-303)
chain: QLLFSNVNSIEFTSCNETVVIPCIVRNVEAQSTEEMFVKWKLNKSYIFIYDGNKNSTTTDQNFTSAKISVSDLINGIASLKMDKRDAMVGNYTCEVTELSREGKTVIELKNRTVSWFSPNEKILIVIFPILAILLFWGKFGILTLKYKSSHTNKRIILLLVAGLVLTVIVVVGAILLIPGEKPVKNASGLGLIVISTGILILLQYNVFMTAFGMTSFTIAILITQVLGYVLALVGLCLCIMACEPVHGPLLISGLGIIALAELLGLVYMKFVASNQRTIQPPRNR
B6: basigin (Bsg) (protein, UniProt P18572 22-389)
chain: AAGFLKAPLSQERWAGGSVVLHCEAVGSPIPEIQWWFEGNAPNDSCSQLWDGARLDRVHIHAAYRQHAASSLSVDGLTAEDTGTYECRASSDPDRNHLTRPPRVKWVRAQASVVVLEPGTIQTSVQEVNSKTQLTCSLNSSGVDIVGHRWMRGGKVLQEDTLPDLHTKYIVDADDRSGEYSCIFLPEPVGRSEINVEGPPRIKVGKKSEHSSEGELAKLVCKSDASYPPITDWFWFKTSDTGEEEAITNSTEANGKYVVVSTPEKSQLTISNLDVNVDPGTYVCNATNAQGTTRETISLRVRSRMAALWPFLGIVAEVLVLVTIIFIYEKRRKPDQTLDEDDPGAAPLKGSGTHMNDKDKNVRQRNAT
B7: transmembrane emp24 domain-containing protein 9 (Tmed9) (protein, UniProt Q99KF1 38-235)
chain: LYFHIGETEKKCFIEEIPDETMVIGNYRTQLYDKQREEYQPATPGLGMFVEVKDPEDKVILARQYGSEGRFTFTSHTPGEHQICLHSNSTKFSLFAGGMLRVHLDIQVGEHANDYAEIAAKDKLSELQLRVRQLVEQVEQIQKEQNYQRWREERFRQTSESTNQRVLWWSILQTLILVAIGVWQMRHLKSFFEAKKLV

These are yes or no findings as the source states them, for the method shown. Binding seen in cells or lysates may run through a third protein. These calls come from enrichment with a bait or labelling near it, and not all partners need be listed.

The target of this assay is prion protein (PrP) (mouse (endogenous in NMuMG, C2C12, N2a and CAD5)) (UniProt P04925). Kind of assay: affinity purification with mass spectrometry.
Take “galectin-1 (Lgals1) (from UniProt P16045 1-135)”: the binding result is reported as “binds”.
Consider “neural cell adhesion molecule 1 (Ncam1) (from UniProt P13595 20-1115)”, for which the binding entry is recorded as “binds”.
The entry for “transmembrane emp24 domain-containing protein 2 (Tmed2) (from UniProt Q9R0Q3 21-201)” is “binds”.
The entry for “large neutral amino acid transporter small subunit 1 (Slc7a5) (from UniProt Q9Z127 1-512)” is “binds”; for “4F2 cell-surface antigen heavy chain (Slc3a2) (from UniProt P10852 1-526)” it is “binds”.
As for Thbs1 (from UniProt P35441 19-1170), the binding entry is recorded as “binds”.
Take “calreticulin (Calr) (from UniProt P14211 18-416)”: the binding entry is reported as “binds”.
To Tmem206 (from UniProt Q9D771 1-350) belongs “binds”.
The entry for “protein disulfide isomerase (P4hb) (from UniProt P09103 20-509)” is “binds”; for “thrombospondin type-1 domain containing protein 7 A (Thsd7a) (from UniProt Q69ZU6 39-1645)” it is “binds”.
The entry for “insulin-like growth factor-binding protein 5 (Igfbp5) (from UniProt Q07079 20-271)” is “binds”; for B1 it is “binds”.
Regarding B2, the binding entry is recorded as “binds”.
To B3 belongs “binds”.
The entry for B4 is “binds”; for B5 it is “binds”; for B6 it is “binds”.
To B7 belongs “binds”.
